Among all 330,000 compounds or so, about 7,700 (2.3%) were called active. Inconclusive means that the source gave no clear call. Such entries were picked first, then a sample of the others. Calls follow the shape of the dose curve; as a rule, active = well fitted inhibition curve with a large enough effect; inconclusive = small, poorly fitted or top-dose-only effect, or effect the other way; inactive = flat fitted curve, though single readings scatter. Where the call is inconclusive, the potency comes from a doubtful curve fit.
Experiment: qHTS screen for small molecules that inhibit ELG1-dependent DNA repair in human embryonic kidney (HEK293T) cells expressing luciferase-tagged ELG1; also: nearly all actives have a fitted effect of over 55% in size
Conditions: HEK293T ELG1-luciferase reporter, luminescence, 16 h, DNA damage induced by 5-fluorouridine; activity change, negative = inhibition: at 46.1 µM (top of the series)
How it was run: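 Luminescence from the luciferase reporter, measured 30 min after ONE-Glo reagent at room temperature, was the read-out. Beforehand, 2,000 cells per well were exposed for 16 hr at 37 °C to 5-fluorouridine together with compound or vehicle.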
% is scaled to controls: 0 for no effect and ±100 for the full control effect; potency is read from the fitted curve at half-maximal effect.

| Structure (SMILES) | Potency | activity change, negative = inhibition |
| --- | --- | --- |
| COc1ccc(/C=N/Nc2ccc(C(=O)O)cc2)c(OC)c1OC | inconclusive: 13 µM [activator, partial curve] |  |
| CC(C)(C)OC(=O)N1Cc2ccccc2C[C@H]1C(=O)O | inactive |  |
| CCc1ccccc1NC1=NCC(=O)N1Cc1ccc2c(c1)OCO2 | inconclusive: 20.6 µM [activator, single point] |  |
| CN(C)S(=O)(=O)c1ccc(NC(=O)CSc2nnc(-c3ccco3)n2N)cc1 | inconclusive: 18.3 µM [activator, single point] |  |
| Cn1c(N)c(C(=O)COC(=O)c2ccc(OC(F)F)cc2)c(=O)n(C)c1=O | inactive |  |
| O=[N+]([O-])c1ccc(CSc2ncnc3ccccc23)cc1 | inconclusive: 29.1 µM [inhibitor, single point] |  |
| COc1ccc(-c2ccnc(-c3ccc(O)cc3)n2)cc1 | inconclusive: 32.6 µM [activator, single point] |  |
| CCN1CCN(c2cc(C(C)C)nc3c(-c4ccccc4)c(C)nn23)CC1 | inconclusive: 6.51 µM [inhibitor, single point] |  |
| CC(c1ccon1)N(C)C(=O)CCc1nnc(C2(c3ccc(Cl)cc3)CCC2)o1 (stereo not drawn) | inconclusive: 23.1 µM [activator, single point] |  |
| CC(O)c1cc2c(cc1NC(=O)c1cnn3c1NC(c1ccco1)CC3C(F)(F)F)OCO2 (stereo not drawn) | inconclusive: 5.8 µM [inhibitor, single point] |  |
| CN(C)S(=O)(=O)Nc1ccccc1F | inactive |  |
| O=C(CSc1ccccc1)NC1CCCCCCC1 | inconclusive: 20.6 µM [activator, partial curve] |  |
| CN(c1ccc(OCC(=O)Nc2nc(-c3ccccc3)cs2)cc1)S(=O)(=O)c1ccc(F)cc1 | inconclusive: 14.6 µM [inhibitor, partial curve] |  |
| COc1ccc(N2C(=O)N(Cc3ccccc3F)c3ccccc3S2(=O)=O)cc1 | inconclusive: 8.2 µM [inhibitor, partial curve, poor fit] |  |
| CN(CCNC(=O)c1ccc(CS(=O)(=O)c2ccc(Br)cc2)o1)CCc1ccccc1 |  | inconclusive: 51.1% [activator] |
| Cc1cc2c(c(=O)n1Cc1cccnc1)C(c1cccs1)C(C#N)=C(N)O2 (stereo not drawn) | inconclusive: 7.31 µM [inhibitor, partial curve, poor fit] |  |
| COc1ccccc1Cn1c(/C=C/c2ccccc2)nc2ccccc21 | inconclusive: 5.17 µM [activator, full curve] |  |
| O=C1c2ccccc2[C@@H]2C[C@@H](O)[C@H](Nc3cccc4ccccc34)CCN12 | inconclusive: 20.6 µM [inhibitor, single point] |  |
| CCOC(=O)C(c1ccccc1)C(Nc1ccc(F)cc1)c1ccccn1 (stereo not drawn) | inconclusive: 20.6 µM [inhibitor, single point] |  |
| COc1cccc(-c2nnc(SCC(=O)Nc3cc(C)on3)o2)c1 | inconclusive: 10 µM [activator, partial curve, poor fit] |  |
| Cc1cc(C(=O)OCC(=O)N2CCC(C)CC2)c2ccccc2n1 | inactive |  |
| Clc1ccc(N=C2SCCS2)cc1 | inconclusive: 11.6 µM [inhibitor, single point] |  |

| Structure (SMILES) | Potency | activity change, negative = inhibition |
| --- | --- | --- |
| Cc1ccc(NC(=O)/C(C#N)=C/c2ccc(C)s2)c(C)c1 | inconclusive: 9.2 µM [activator, partial curve] |  |
| CNC(=S)NNC(=O)c1sc(-c2cc(C)on2)nc1C | inactive |  |
| Fc1ccc(N/N=C/c2ccncc2)c(F)c1 | inconclusive: 20.6 µM [activator, partial curve] |  |
| O=C(CCCSc1nnc(-c2cccs2)n1CC1CCCO1)c1ccccc1 (stereo not drawn) | inconclusive: 9.2 µM [inhibitor, partial curve] |  |
| CCCn1c(NCc2ccccn2)nc2ccccc21 | inconclusive: 25.9 µM [activator, single point] |  |
| COc1cccc(N2CC(C(=O)N3CCC4(CC3)CC(=O)c3ccccc3O4)CC2=O)c1 (stereo not drawn) | inconclusive: 29.1 µM [inhibitor, single point] |  |
| Cc1cc(-c2ccc(/C=N/n3cnnc3)o2)c([N+](=O)[O-])cc1C | inconclusive: 4.47 µM [activator, partial curve, poor fit] |  |
| CCOC(=O)CN1N=C(/C=C/c2ccc(C(C)C)cc2)CCC1=O | inconclusive: 29.1 µM [activator, single point] |  |
| Cc1ccc(C)c(S(=O)(=O)N2CCN(C(=O)[C@@H](NC(=O)c3ccc(F)cc3)C(C)C)CC2)c1 | inconclusive: 14.6 µM [inhibitor, partial curve, poor fit] |  |
| CCOc1ccc(/C=N/NC(N)=S)cc1 | inconclusive: 18.4 µM [activator, single point] |  |
| O=C(N/N=C/c1cc([N+](=O)[O-])ccc1O)C12CC3CC(CC(C3)C1)C2 | inconclusive: 9.2 µM [inhibitor, partial curve, poor fit] |  |
| CN1CCCCc2c1nc1ccccc1c2N (tested in a mixture with another compound) | inactive |  |
| O=C(NCC1CCCO1)c1ccc2ccccc2n1 (stereo not drawn) | inconclusive: 14.6 µM [activator, partial curve] |  |
| CCOc1ccccc1C(=O)OCC(=O)NCC1CCCCC1 | inactive |  |
| O=C(NCCc1ccccc1)C(=O)NCC1CCNCC1 | inactive |  |
| Cc1nc2ccccc2nc1OCc1ccccc1 | inconclusive: 32.6 µM [activator, single point] |  |
| CN(Cc1ccco1)S(=O)(=O)c1ccc(CN2C(=O)c3cccnc3C2=O)s1 | inconclusive: 14.6 µM [activator, partial curve, poor fit] |  |
| CCN(CC)c1ccc(NC(=O)c2ccccc2)cc1S(=O)(=O)Nc1ccccc1OC | inconclusive: 11.6 µM [inhibitor, partial curve, poor fit] |  |
| CC(/C=C/c1ccc2c(c1)OCO2)=N/NC(=O)c1ccncc1 | inactive |  |
| O=C(CCCc1ccccc1)Nc1ccccn1 | inconclusive: 18.3 µM [activator, partial curve] |  |
| O=C(CCc1c[nH]c2ccccc12)N1CCN(S(=O)(=O)c2ccc(F)cc2)CC1 | inactive |  |

Record cards (already shown):
`CC(/C=C/c1ccc2c(c1)OCO2)=N/NC(=O)c1ccncc1` is listed with Potency: inactive
`Cc1ccc(NC(=O)/C(C#N)=C/c2ccc(C)s2)c(C)c1` is listed with Potency: inconclusive: 9.2 µM [activator, partial curve]

Compounds listed so far with a cyano group, in the order listed:

| Structure (SMILES) | Potency | activity change, negative = inhibition |
| --- | --- | --- |
| Cc1cc2c(c(=O)n1Cc1cccnc1)C(c1cccs1)C(C#N)=C(N)O2 (stereo not drawn) | inconclusive: 7.31 µM [inhibitor, partial curve, poor fit] |  |
| Cc1ccc(NC(=O)/C(C#N)=C/c2ccc(C)s2)c(C)c1 | inconclusive: 9.2 µM [activator, partial curve] |  |

— PubChem BioAssay AID504467 (National Center for Advancing Translational Sciences (NCATS), 2011)
